Consider 33 targets from the supplement of paper PMC10849652.

The chains behind the UniProt entries cited, without tags or fusion partners. Where a name states a change or a piece, a line headed by the entry shows the natural chain unless it says otherwise.
UniProt Q9HD34: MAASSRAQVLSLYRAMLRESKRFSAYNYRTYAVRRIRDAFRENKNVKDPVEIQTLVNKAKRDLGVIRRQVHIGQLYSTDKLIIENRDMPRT
UniProt O60337: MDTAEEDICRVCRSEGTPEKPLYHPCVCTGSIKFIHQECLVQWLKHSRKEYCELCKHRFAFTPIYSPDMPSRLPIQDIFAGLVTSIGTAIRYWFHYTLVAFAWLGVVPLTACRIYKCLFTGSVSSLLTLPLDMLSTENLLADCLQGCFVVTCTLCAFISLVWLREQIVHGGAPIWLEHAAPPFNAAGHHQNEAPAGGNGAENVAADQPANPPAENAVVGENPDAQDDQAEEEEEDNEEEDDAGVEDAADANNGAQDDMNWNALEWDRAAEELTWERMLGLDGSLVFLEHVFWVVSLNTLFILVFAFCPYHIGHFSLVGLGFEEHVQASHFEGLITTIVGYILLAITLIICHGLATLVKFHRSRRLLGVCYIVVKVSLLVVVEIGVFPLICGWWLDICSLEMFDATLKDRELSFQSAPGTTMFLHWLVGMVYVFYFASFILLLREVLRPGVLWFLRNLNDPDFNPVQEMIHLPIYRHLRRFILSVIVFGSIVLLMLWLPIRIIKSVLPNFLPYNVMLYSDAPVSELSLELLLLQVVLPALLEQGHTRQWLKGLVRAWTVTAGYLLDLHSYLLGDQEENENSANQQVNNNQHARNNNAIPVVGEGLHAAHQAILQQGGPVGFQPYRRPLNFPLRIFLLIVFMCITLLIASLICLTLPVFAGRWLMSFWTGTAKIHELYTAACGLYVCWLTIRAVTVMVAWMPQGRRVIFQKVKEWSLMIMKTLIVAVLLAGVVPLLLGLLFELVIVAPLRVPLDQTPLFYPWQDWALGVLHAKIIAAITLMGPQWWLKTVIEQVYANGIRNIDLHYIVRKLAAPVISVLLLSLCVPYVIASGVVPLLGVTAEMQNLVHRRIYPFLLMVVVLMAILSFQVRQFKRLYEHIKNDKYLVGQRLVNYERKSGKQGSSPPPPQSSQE
UniProt P62312: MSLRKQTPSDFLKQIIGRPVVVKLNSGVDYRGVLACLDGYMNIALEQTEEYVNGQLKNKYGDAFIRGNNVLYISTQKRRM
UniProt Q9Y333: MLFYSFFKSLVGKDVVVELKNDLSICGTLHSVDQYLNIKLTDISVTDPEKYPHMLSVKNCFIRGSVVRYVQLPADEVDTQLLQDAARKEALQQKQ
UniProt P45985: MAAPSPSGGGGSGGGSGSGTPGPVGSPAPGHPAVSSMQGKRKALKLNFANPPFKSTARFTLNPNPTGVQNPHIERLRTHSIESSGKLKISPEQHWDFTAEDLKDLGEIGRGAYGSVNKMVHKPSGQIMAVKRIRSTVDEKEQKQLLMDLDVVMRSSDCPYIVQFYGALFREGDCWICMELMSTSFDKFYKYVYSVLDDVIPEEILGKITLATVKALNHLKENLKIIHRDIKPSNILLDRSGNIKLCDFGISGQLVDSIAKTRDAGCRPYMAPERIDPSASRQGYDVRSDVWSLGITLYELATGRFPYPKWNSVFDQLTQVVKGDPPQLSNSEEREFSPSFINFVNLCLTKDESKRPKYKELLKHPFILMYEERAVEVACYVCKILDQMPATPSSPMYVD
UniProt Q9NTJ4: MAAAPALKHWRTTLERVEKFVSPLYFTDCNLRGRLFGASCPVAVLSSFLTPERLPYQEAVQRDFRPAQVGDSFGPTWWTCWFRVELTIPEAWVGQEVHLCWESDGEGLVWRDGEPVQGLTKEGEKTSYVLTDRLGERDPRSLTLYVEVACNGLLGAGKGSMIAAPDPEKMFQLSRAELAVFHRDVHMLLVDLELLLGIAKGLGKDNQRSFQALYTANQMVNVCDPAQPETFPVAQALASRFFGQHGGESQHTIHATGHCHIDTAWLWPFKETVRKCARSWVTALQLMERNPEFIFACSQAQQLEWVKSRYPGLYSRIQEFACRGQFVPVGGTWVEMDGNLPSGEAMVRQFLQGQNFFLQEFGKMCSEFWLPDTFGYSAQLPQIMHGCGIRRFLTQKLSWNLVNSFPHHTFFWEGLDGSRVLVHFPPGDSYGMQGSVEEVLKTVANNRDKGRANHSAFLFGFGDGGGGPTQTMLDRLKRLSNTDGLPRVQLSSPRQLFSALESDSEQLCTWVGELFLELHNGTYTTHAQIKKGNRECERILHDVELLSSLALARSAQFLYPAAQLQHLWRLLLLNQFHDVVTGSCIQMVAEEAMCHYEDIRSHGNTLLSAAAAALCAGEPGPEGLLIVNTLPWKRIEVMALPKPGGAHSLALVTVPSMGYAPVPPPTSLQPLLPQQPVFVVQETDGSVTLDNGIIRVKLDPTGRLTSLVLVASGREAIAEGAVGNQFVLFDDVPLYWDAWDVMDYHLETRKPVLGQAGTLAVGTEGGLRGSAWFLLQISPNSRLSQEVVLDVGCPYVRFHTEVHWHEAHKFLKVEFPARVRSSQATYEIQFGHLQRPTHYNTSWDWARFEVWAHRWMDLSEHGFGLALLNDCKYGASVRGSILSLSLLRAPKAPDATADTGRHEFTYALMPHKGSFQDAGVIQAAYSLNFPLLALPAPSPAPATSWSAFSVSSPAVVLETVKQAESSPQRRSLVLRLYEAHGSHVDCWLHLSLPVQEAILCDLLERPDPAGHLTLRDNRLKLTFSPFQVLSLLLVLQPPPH
UniProt Q9Y4Z0: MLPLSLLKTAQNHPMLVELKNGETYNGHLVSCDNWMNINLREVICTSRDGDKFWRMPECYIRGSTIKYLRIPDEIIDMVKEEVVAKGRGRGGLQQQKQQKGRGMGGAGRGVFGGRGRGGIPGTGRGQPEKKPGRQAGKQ
UniProt P28482, whole entry, looked up: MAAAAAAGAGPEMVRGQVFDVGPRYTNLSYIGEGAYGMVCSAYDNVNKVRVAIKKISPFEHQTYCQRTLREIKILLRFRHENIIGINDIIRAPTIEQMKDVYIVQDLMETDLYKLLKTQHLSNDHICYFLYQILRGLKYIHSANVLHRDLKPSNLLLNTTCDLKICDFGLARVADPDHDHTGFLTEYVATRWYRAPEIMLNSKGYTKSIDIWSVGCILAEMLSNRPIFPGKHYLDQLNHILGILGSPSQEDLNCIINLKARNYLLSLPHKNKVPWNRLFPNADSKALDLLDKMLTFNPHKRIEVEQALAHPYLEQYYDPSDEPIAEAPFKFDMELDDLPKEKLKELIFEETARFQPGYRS
UniProt P49641: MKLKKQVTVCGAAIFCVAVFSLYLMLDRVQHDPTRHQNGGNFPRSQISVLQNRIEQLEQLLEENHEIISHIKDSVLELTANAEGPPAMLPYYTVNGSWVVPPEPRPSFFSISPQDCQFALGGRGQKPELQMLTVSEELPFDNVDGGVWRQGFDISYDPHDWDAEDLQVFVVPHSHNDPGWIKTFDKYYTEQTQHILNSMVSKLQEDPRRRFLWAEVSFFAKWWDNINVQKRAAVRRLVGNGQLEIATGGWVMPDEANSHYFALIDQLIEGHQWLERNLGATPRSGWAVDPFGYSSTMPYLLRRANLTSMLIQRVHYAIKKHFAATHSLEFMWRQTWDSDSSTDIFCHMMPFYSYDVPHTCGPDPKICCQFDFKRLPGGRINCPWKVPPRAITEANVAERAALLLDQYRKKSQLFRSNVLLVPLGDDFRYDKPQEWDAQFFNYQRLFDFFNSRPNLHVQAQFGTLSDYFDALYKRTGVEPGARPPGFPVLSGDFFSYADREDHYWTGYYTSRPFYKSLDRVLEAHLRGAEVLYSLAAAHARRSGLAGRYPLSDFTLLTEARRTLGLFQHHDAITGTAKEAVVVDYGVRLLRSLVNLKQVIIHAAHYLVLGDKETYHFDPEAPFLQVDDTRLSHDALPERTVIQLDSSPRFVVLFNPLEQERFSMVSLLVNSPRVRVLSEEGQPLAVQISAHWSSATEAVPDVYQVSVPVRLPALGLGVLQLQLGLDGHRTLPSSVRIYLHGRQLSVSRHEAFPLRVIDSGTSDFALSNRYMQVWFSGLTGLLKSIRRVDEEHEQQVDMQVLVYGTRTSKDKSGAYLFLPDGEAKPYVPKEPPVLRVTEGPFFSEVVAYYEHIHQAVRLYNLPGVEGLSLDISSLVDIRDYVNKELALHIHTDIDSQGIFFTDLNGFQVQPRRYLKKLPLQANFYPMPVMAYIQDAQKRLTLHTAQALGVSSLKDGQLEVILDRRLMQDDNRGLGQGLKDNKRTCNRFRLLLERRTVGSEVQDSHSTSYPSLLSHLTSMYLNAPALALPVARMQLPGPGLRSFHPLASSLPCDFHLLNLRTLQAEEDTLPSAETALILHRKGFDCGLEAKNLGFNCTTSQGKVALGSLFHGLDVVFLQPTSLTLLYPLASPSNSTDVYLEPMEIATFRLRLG
UniProt P55145: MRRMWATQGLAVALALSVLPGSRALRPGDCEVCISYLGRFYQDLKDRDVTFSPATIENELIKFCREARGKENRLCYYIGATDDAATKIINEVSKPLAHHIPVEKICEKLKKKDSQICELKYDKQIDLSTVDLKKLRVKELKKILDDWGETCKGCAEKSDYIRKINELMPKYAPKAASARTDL
UniProt Q9NX47: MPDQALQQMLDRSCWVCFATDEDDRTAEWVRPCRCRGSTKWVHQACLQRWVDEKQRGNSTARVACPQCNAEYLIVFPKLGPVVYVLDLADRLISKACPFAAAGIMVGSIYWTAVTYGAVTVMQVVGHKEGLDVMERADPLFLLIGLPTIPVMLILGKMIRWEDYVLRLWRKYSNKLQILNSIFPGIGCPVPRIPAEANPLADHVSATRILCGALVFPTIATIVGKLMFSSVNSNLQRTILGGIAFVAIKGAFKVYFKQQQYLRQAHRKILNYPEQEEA
UniProt Q14244: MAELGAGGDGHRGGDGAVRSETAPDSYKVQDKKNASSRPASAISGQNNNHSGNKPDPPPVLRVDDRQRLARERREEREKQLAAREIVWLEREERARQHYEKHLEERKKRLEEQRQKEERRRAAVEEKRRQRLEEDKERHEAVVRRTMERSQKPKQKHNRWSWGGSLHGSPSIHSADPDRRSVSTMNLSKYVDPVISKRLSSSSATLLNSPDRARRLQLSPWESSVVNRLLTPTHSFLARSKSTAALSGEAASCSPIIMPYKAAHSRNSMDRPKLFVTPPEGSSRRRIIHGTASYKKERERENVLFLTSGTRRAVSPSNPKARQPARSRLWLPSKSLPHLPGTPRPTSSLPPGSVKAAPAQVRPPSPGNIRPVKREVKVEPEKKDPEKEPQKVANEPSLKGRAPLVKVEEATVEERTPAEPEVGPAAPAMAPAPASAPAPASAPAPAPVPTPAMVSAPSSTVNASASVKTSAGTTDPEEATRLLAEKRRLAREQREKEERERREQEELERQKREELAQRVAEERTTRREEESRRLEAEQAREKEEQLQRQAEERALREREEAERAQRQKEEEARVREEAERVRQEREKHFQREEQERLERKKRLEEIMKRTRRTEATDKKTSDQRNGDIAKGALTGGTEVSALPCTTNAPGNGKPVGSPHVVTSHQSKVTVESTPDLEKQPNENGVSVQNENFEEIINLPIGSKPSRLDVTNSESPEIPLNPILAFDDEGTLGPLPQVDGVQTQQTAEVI
UniProt Q15013: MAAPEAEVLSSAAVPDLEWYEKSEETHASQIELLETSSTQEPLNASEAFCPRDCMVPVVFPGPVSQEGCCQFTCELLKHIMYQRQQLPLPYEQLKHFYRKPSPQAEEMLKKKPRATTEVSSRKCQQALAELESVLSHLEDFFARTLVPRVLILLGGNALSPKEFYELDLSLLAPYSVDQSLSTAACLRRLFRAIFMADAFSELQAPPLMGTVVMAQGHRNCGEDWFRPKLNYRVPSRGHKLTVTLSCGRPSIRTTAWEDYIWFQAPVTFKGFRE
UniProt Q15691: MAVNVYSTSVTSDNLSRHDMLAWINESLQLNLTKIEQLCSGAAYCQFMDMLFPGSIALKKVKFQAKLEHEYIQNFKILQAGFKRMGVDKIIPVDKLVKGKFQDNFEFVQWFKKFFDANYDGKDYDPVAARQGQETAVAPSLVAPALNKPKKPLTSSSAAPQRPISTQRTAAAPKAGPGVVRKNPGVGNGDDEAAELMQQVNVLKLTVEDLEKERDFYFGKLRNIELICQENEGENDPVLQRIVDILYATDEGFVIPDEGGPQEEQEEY
UniProt P62310: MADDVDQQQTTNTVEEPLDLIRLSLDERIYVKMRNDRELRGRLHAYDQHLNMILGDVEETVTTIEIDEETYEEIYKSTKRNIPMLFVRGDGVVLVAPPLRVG
UniProt Q9UK45: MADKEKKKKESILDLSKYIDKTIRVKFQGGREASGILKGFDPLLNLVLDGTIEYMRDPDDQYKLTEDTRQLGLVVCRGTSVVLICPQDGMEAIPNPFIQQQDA

The other results are listed elsewhere or left out.

Compound in the experiment: CC1=C(C=C(C=C1)NC(=O)C2=CC(=CC=C2)C(C)(C)C#N)NC3=CC4=C(C=C3)N=CN(C4=O)C
Kind of experiment: log2 fold change, soluble protein after heating vs DMSO (PISA); higher = thermal stabilisation; K562 cells, 10 uM, 30 min; active = over 0.2 and 3.5 SD of the protein, either way, in both replicates (recomputed). Put shortly: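 Quantification of soluble protein used TMTpro 16plex LC-MS/MS, with channel sums equalised. Samples were the supernatant after 21,000xg for 90 min of pooled aliquots from K562 cells (2×10^6 cells/mL) treated with 10 μM compound for 30 min, heated for 3 min over 48°C-58°C, and extracted in PBS with 0.5% NP-40 at 4°C. Values, from duplicates, describe thermal stability against control samples on a log2 fold-change scale.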
Consider LYRM4 (UniProt Q9HD34), for which the log2 fold change was inactive: 0.014.

MAGEB2 (UniProt O15479): the log2 fold change is inactive: 0.012.

In the case of MAP1A isoform 2 (UniProt P78559), the log2 fold change was inactive: -0.035.

On to MANBA (UniProt O00462), for which the log2 fold change was inactive: 0.005.

As to MAP7D1 (UniProt Q3KQU3), the log2 fold change was inactive: -0.118.

On to MAEA (UniProt Q7L5Y9), for which the log2 fold change was inactive: -0.044.

MARCHF6 (UniProt O60337): the log2 fold change was inactive: -0.167.

With LRRC8A (UniProt Q8IWT6), the log2 fold change was inactive: 0.048.

Regarding MAGT1 (UniProt Q9H0U3), the log2 fold change was inactive: 0.009.

As for M6PR (UniProt P20645), the log2 fold change was inactive: -0.086.

As to LSM6 (UniProt P62312), the log2 fold change is inactive: -0.033.

For the target LSM2 (UniProt Q9Y333), the log2 fold change is inactive: -0.02.

As to MACF1 (UniProt H3BQK9), the log2 fold change was inactive: 0.02.

Take LYZ (UniProt P61626): the log2 fold change is inactive: -0.085.

As to MAP2K4 isoform 2 (UniProt P45985), the log2 fold change was inactive: -0.024.

Consider LRRFIP2 (UniProt Q9Y608), for which the log2 fold change was inactive: -0.04.

For MAN2C1 isoform 4 (UniProt Q9NTJ4), the log2 fold change is inactive: 0.024.

For the target LRSAM1 (UniProt Q6UWE0), the log2 fold change was inactive: -0.023.

With MAN2A1 (UniProt Q16706), the log2 fold change was inactive: 0.006.

On to LSM4 (UniProt Q9Y4Z0), for which the log2 fold change is inactive: 0.032.

In the case of MAPK1 (UniProt P28482), the log2 fold change is inactive: -0.013.

MACO1 (UniProt Q8N5G2): the log2 fold change is inactive: -0.035.

MAN2A2 (UniProt P49641): the log2 fold change is inactive: 0.034.

For MALSU1 (UniProt Q96EH3), the log2 fold change is inactive: -0.02.

For the target MANF (UniProt P55145), the log2 fold change is inactive: 0.057.

Take MARCHF5 (UniProt Q9NX47): the log2 fold change is inactive: -0.019.

As to MAP7 isoform 7 (UniProt Q14244), the log2 fold change was inactive: -0.03.

In the case of MAN1B1 (UniProt Q9UKM7), the log2 fold change was inactive: -0.064.

On to MAD2L1BP isoform 3 (UniProt Q15013), for which the log2 fold change is inactive: -0.038.

On to MAPRE1 (UniProt Q15691), for which the log2 fold change was inactive: 0.017.

Consider LSM3 (UniProt P62310), for which the log2 fold change is inactive: -0.044.

On to LYAR (UniProt Q9NX58), for which the log2 fold change was inactive: 0.055.

For the target LSM7 (UniProt Q9UK45), the log2 fold change is inactive: -0.016.
